Measured values as given in patent US20250388673A1.
These are yes or no findings as the source states them, for the method shown. A result given as binding can be weak or reduced; the word gives no strength.

Each binder was assayed against cynomolgus BTLA (cynomolgus monkey) (assay: flow cytometry, Expi293 cells overexpressing cynomolgus BTLA).

Row | Binder | binding
1 | HFB6-4hz3-hG1 (antibody, human IgG1, V domains shown) VH: EVQLVESGGGLVQPGRSLRLSCTTSGFNIKDTYIHWFRQAPGKGLEWVGRNDPANGNTKYTASFKGRATISADGSKSIAYLQMNSLKTEDTAVYYCASYEGYYERFGYWGQGTLVTVSS VL: DIQMTQSPSSLSASVGDRVTITCRSSQSLLDRDGKSYLNWLQQKPGKAPKRLIYLVSKLDSGVPSRFSGSGSGTDFTLTISSLQPEDFATYYCWQDTHFPYTFGQGTKLEIK | binds
2 | HFB6-4hz4-hG1 (antibody, human IgG1, V domains shown) VH: EVQLVESGGGLVQPGGSLKLSCATSGFNIKDTYIHWVRQASGKGLEWIGRNDPANGNTKYAASFKGRATISADDSKNTAYLQLNSLKTEDTAVYYCASYEGYYERFGYWGQGTLVTVSS VL: DIQMTQSPSSLSASVGDRVTITCRSSQSLLDRDGKSYLNWLQQKPGKAPKRLIYLVSKLDSGVPSRFSGSGSGTDFTLTISSLQPEDFATYYCWQDTHFPYTFGQGTKLEIK | binds
3 | HFB6-4hz5-hG1 (antibody, human IgG1, V domains shown) VH: QVQLQESGPGLVKPSGTLSLTCAVSGFNIKDTYIHWVRQPPGKGLEWIGRNDPANGNTKYNPSFKSRATISADKSKNQASLKLSSVTAADTAVYYCASYEGYYERFGYWGQGTLVTVSS VL: DIQMTQSPSSLSASVGDRVTITCRSSQSLLDRDGKSYLNWLQQKPGKAPKRLIYLVSKLDSGVPSRFSGSGSGTDFTLTISSLQPEDFATYYCWQDTHFPYTFGQGTKLEIK | binds
4 | HFB6-4hz6-hG1 (antibody, human IgG1, V domains shown) VH: EVQLVQSGAEVKKPGESLKISCKTSGFNIKDTYIHWVRQMPGKGLEWIGRNDPANGNTKYSPSFQGQVTISADKSISTAYLQLSSLKASDTAMYYCASYEGYYERFGYWGQGTLVTVSS VL: DIQMTQSPSSLSASVGDRVTITCRSSQSLLDRDGKSYLNWLQQKPGKAPKRLIYLVSKLDSGVPSRFSGSGSGTDFTLTISSLQPEDFATYYCWQDTHFPYTFGQGTKLEIK | binds
5 | HFB6-4hz7-hG1 (antibody, human IgG1, V domains shown) VH: QVQLVQSGAEVKKPGSSVKVSCKTSGFNIKDTYIHWVRQAPGQGLEWIGRNDPANGNTKYAQKFQGRATITADESTSTAYMELSSLRSEDTAVYYCASYEGYYERFGYWGQGTLVTVSS VL: DVVMTQSPLSLPVTLGQPASISCRSSQSLLDRDGKTYLNWLQQRPGQSPRRLIYLVSKRDSGVPDRFSGSGSGTDFTLKISRVEAEDVGVYYCWQDTHFPYTFGQGTKLEIK | binds
6 | HFB6-4hz8-hG1 (antibody, human IgG1, V domains shown) VH: QVQLVQSGAEVKKPGASVKVSCKTSGFNIKDTYIHWVRQAPGQGLEWIGRNDPANGNTKYAQKFQGRVTMTADTSTSTVYMELSSLRSEDTAVYYCASYEGYYERFGYWGQGTLVTVSS VL: DVVMTQSPLSLPVTLGQPASISCRSSQSLLDRDGKTYLNWLQQRPGQSPRRLIYLVSKRDSGVPDRFSGSGSGTDFTLKISRVEAEDVGVYYCWQDTHFPYTFGQGTKLEIK | binds
7 | HFB6-4hz9-hG1 (antibody, human IgG1, V domains shown) VH: EVQLVESGGGLVQPGRSLRLSCTTSGFNIKDTYIHWFRQAPGKGLEWVGRNDPANGNTKYTASFKGRATISADGSKSIAYLQMNSLKTEDTAVYYCASYEGYYERFGYWGQGTLVTVSS VL: DVVMTQSPLSLPVTLGQPASISCRSSQSLLDRDGKTYLNWLQQRPGQSPRRLIYLVSKRDSGVPDRFSGSGSGTDFTLKISRVEAEDVGVYYCWQDTHFPYTFGQGTKLEIK | binds
8 | HFB6-4hz10-hG1 (antibody, human IgG1, V domains shown) VH: EVQLVESGGGLVQPGGSLKLSCATSGFNIKDTYIHWVRQASGKGLEWIGRNDPANGNTKYAASFKGRATISADDSKNTAYLQLNSLKTEDTAVYYCASYEGYYERFGYWGQGTLVTVSS VL: DVVMTQSPLSLPVTLGQPASISCRSSQSLLDRDGKTYLNWLQQRPGQSPRRLIYLVSKRDSGVPDRFSGSGSGTDFTLKISRVEAEDVGVYYCWQDTHFPYTFGQGTKLEIK | binds
9 | HFB6-4hz11-hG1 (antibody, human IgG1, V domains shown) VH: QVQLQESGPGLVKPSGTLSLTCAVSGFNIKDTYIHWVRQPPGKGLEWIGRNDPANGNTKYNPSFKSRATISADKSKNQASLKLSSVTAADTAVYYCASYEGYYERFGYWGQGTLVTVSS VL: DVVMTQSPLSLPVTLGQPASISCRSSQSLLDRDGKTYLNWLQQRPGQSPRRLIYLVSKRDSGVPDRFSGSGSGTDFTLKISRVEAEDVGVYYCWQDTHFPYTFGQGTKLEIK | binds
10 | HFB6-4hz12-hG1 (antibody, human IgG1, V domains shown) VH: EVQLVQSGAEVKKPGESLKISCKTSGFNIKDTYIHWVRQMPGKGLEWIGRNDPANGNTKYSPSFQGQVTISADKSISTAYLQLSSLKASDTAMYYCASYEGYYERFGYWGQGTLVTVSS VL: DVVMTQSPLSLPVTLGQPASISCRSSQSLLDRDGKTYLNWLQQRPGQSPRRLIYLVSKRDSGVPDRFSGSGSGTDFTLKISRVEAEDVGVYYCWQDTHFPYTFGQGTKLEIK | binds
11 | HFB6-4hz13-hG1 (antibody, human IgG1, V domains shown) VH: QVQLVQSGAEVKKPGSSVKVSCKTSGFNIKDTYIHWVRQAPGQGLEWIGRNDPANGNTKYAQKFQGRATITADESTSTAYMELSSLRSEDTAVYYCASYEGYYERFGYWGQGTLVTVSS VL: EIVLTQSPGTLSLSPGERATLSCRSSQSLLDRDGKTYLNWLQQKPGQAPRRLIYLVSKLDSGIPDRFSGSGSGTDFTLTISRLEPEDFAVYYCWQDTHFPYTFGQGTKLEIK | binds
12 | HFB6-4hz14-hG1 (antibody, human IgG1, V domains shown) VH: QVQLVQSGAEVKKPGASVKVSCKTSGFNIKDTYIHWVRQAPGQGLEWIGRNDPANGNTKYAQKFQGRVTMTADTSTSTVYMELSSLRSEDTAVYYCASYEGYYERFGYWGQGTLVTVSS VL: EIVLTQSPGTLSLSPGERATLSCRSSQSLLDRDGKTYLNWLQQKPGQAPRRLIYLVSKLDSGIPDRFSGSGSGTDFTLTISRLEPEDFAVYYCWQDTHFPYTFGQGTKLEIK | binds
13 | HFB6-4hz15-hG1 (antibody, human IgG1, V domains shown) VH: EVQLVESGGGLVQPGRSLRLSCTTSGFNIKDTYIHWFRQAPGKGLEWVGRNDPANGNTKYTASFKGRATISADGSKSIAYLQMNSLKTEDTAVYYCASYEGYYERFGYWGQGTLVTVSS VL: EIVLTQSPGTLSLSPGERATLSCRSSQSLLDRDGKTYLNWLQQKPGQAPRRLIYLVSKLDSGIPDRFSGSGSGTDFTLTISRLEPEDFAVYYCWQDTHFPYTFGQGTKLEIK | binds
14 | HFB6-4hz16-hG1 (antibody, human IgG1, V domains shown) VH: EVQLVESGGGLVQPGGSLKLSCATSGFNIKDTYIHWVRQASGKGLEWIGRNDPANGNTKYAASFKGRATISADDSKNTAYLQLNSLKTEDTAVYYCASYEGYYERFGYWGQGTLVTVSS VL: EIVLTQSPGTLSLSPGERATLSCRSSQSLLDRDGKTYLNWLQQKPGQAPRRLIYLVSKLDSGIPDRFSGSGSGTDFTLTISRLEPEDFAVYYCWQDTHFPYTFGQGTKLEIK | binds
15 | HFB6-4hz17-hG1 (antibody, human IgG1, V domains shown) VH: QVQLQESGPGLVKPSGTLSLTCAVSGFNIKDTYIHWVRQPPGKGLEWIGRNDPANGNTKYNPSFKSRATISADKSKNQASLKLSSVTAADTAVYYCASYEGYYERFGYWGQGTLVTVSS VL: EIVLTQSPGTLSLSPGERATLSCRSSQSLLDRDGKTYLNWLQQKPGQAPRRLIYLVSKLDSGIPDRFSGSGSGTDFTLTISRLEPEDFAVYYCWQDTHFPYTFGQGTKLEIK | binds
16 | HFB6-4hz18-hG1 (antibody, human IgG1, V domains shown) VH: EVQLVQSGAEVKKPGESLKISCKTSGFNIKDTYIHWVRQMPGKGLEWIGRNDPANGNTKYSPSFQGQVTISADKSISTAYLQLSSLKASDTAMYYCASYEGYYERFGYWGQGTLVTVSS VL: EIVLTQSPGTLSLSPGERATLSCRSSQSLLDRDGKTYLNWLQQKPGQAPRRLIYLVSKLDSGIPDRFSGSGSGTDFTLTISRLEPEDFAVYYCWQDTHFPYTFGQGTKLEIK | binds
17 | HFB6-4hz19-hG1 (antibody, human IgG1, V domains shown) VH: QVQLVQSGAEVKKPGSSVKVSCKTSGFNIKDTYIHWVRQAPGQGLEWIGRNDPANGNTKYAQKFQGRATITADESTSTAYMELSSLRSEDTAVYYCASYEGYYERFGYWGQGTLVTVSS VL: DIVMTQSPDSLAVSLGERATINCKSSQSLLDRDGKTYLNWLQQKPGQSPKRLIYLVSKLDSGVPDRFSGSGSGTDFTLTISSLQAEDLAVYYCWQDTHFPYTFGQGTKLEIK | binds
18 | HFB6-4hz20-hG1 (antibody, human IgG1, V domains shown) VH: QVQLVQSGAEVKKPGASVKVSCKTSGFNIKDTYIHWVRQAPGQGLEWIGRNDPANGNTKYAQKFQGRVTMTADTSTSTVYMELSSLRSEDTAVYYCASYEGYYERFGYWGQGTLVTVSS VL: DIVMTQSPDSLAVSLGERATINCKSSQSLLDRDGKTYLNWLQQKPGQSPKRLIYLVSKLDSGVPDRFSGSGSGTDFTLTISSLQAEDLAVYYCWQDTHFPYTFGQGTKLEIK | binds
